Reference: PubChem BioAssay AID1487 (National Center for Advancing Translational Sciences (NCATS), 2009)
“And” between values parts separate entries of the source, which are not always exact repeats. Equal entries are not always repeated. This is one part of the list. Further columns of the screen follow, without active or inactive calls. Compounds called inactive in the main read-out are mostly missing here. Words in brackets tell the shape of the fitted curve; partial curves, single points and poor fits give uncertain potencies.

Experiment: qHTS Assay for Modulators of Lamin A Splicing
Conditions: HeLa LMNA splicing GFP/RFP minigene ratio, 48 h
Source text: NCGC Assay Overview: Hutchinson-Gilford Progeria Syndrome (HGPS) is a pediatric premature aging disease caused by a spontaneous mutation in the lamin A/C (LMNA) gene. The mutation activates a cryptic splice site in the LMNA pre-mRNA which results in production of a pre-lamin A protein that cannot be processed properly. The mutant protein accumulates in the nucleus and negatively affects numerous cellular functions. Correction of the splicing defect in HGPS patient cells using a targeted oligonucleotide (exo11) leads to reversal of the cellular disease phenotypes. To identify small molecule modulators of aberrant LMNA splicing, a homogenous assay was constructed in HeLa cells that used a GFP containing minigene to report on correction of aberrant splicing in lamin A and a RFP (DsRed2) to report on cell viability, uniformity and nonspecific effects on the assay signal. This assay was adapted to laser-scanning microplate cytometry (Acumen, TTP Labtech) where miniaturization of the assay to a 1,536-well plate format was possible. References: Bowen, W. P.; Wylie, P. G. Application of Laser-Scanning Fluorescence Microplate Cytometry in High Content Screening. Assay Drug Dev Technol 2006;4:209-221. Scaffidi P, Misteli T. Reversal of the cellular phenotype in the premature aging disease Hutchinson-Gilford progeria syndrome. Nat.
NCGC Assay Protocol Summary: Reagents/Controls: Stable clones expressing DsRed2 and lamin A-EGFP were generated by Cell and Molecular Technologies in S3 HeLa cells. HeLa cells were prepared for the assay when they were 70-90% confluent. The cells were counted and resuspended in Opti-MEM I (no phenol red; Gibco), 2% FBS, 1% penicillin/ streptomycin (Gibco) at concentration of 120 cells/uL concentration. The suspension was passed through a Falcon basket filter with pore size 40um (Beckton Dickson). Control titrations: column […] 1536-well plate contained a sixteen point titration (1:2 dilutions) in duplicate of ancitabine (Sigma: A8598) beginning at 40 uM final concentration. Column 2 contained a sixteen point titration (1:2 dilutions) of cycloheximide beginning at 1.4 mM final concentration. Column 3 contained ancitabine at 40 uM and column 4 contained was the vehicle control (0.5% DMSO final concentration). Assay Steps: 5 uL of HeLa cells were plated in Aurora LoBase black clear bottom (cyclic-olefin polymer) 1536-well plates at a final density of 600 cells/well. Controls and library compounds were added with a 1536-well pin array using the Kalypsys pin-tool. The plates were then incubated for 48 hrs in a cell-culture incubator (37 °C; 5% CO2, 98% humidity). Following incubation the plates were read on the Acumen Explorer using the 488 nm laser. Data was collected on objects between 10 and 100 um in size. Cell objects were defined by a 15 um width x 10 um depth filter. The ratio of the total object intensity in PMT1 (500-530 nm emission; GFP) over PMT3 (575-640 nm emission; RFP) was calculated for analysis. Keywords: NIH Roadmap, MLSCN, MLI, MLSMR, qHTS, NCGC, lamin A, Progeria, RNA splicing.

[1] = measured here: GFP splicing reporter channel
[2] = measured here: RFP viability control channel

For `CN(C)c1ccc(C(=O)c2ccc(N(C)C)cc2)cc1`, the AC50 [1] was 11.2 µM [falling, partial curve].

For `C[C@@]12CC[C@H](O)C[C@@H]1CC[C@H]1[C@@H]2C[C@@H](O)[C@]2(C)[C@@H](C3=CC(=O)OC3)CC[C@]12O`, the AC50 [1] was 7.08 µM [falling, partial curve, poor fit] and the AC50 [2] was 0.224 µM [falling, full curve, poor fit].

With `CCOc1ccc(C(=O)Nc2ccc3nc(SCC(=O)N4CCCC4)sc3c2)cc1` the AC50 [1] was 0.501 µM [falling, full curve] and the AC50 [2] was 0.158 µM [falling, full curve].

In the case of `C=C[C@@H]1C[C@@]1(C)[C@@H](NP(=O)(c1ccccc1)c1ccccc1)c1ccccc1`, the AC50 [1] is reported as 11.2 µM [rising, single point] and the AC50 [2] is reported as 10 µM [rising, partial curve].

In the case of `CC(=O)OC1C[C@H](O[C@@H]2C(O)C[C@H](O[C@@H]3C(O)C[C@@H](OC4CC[C@]5(C)C(CCC6C5CC(O)[C@@]5(C)C(C7=CC(=O)OC7)CC[C@@]65O)C4)OC3C)OC2C)O[C@H](C)[C@H]1O[C@H]1OC(CO)C(O)C(O)C1O` (some centres undefined), the AC50 [1] is reported as 0.562 µM [falling, full curve] and the AC50 [2] is reported as 0.0562 µM [rising, partial curve, poor fit].

In the case of `CN(C(=O)Oc1cccc2cccnc12)c1ccccc1`, the AC50 [2] is reported as 0.251 µM [rising, full curve, poor fit].

For `O=C1NC(=O)N(Cc2ccccc2)C(=O)/C1=C\C=C\c1ccco1`, the AC50 [2] was 28.2 µM [falling, single point].

With `CCOc1c(Cl)cc(CNCCc2c[nH]c3ccccc23)cc1OC` the AC50 [2] was 0.794 µM [falling, full curve, poor fit].

For `CCN(CC)CCOC(=O)c1cc2cc(COC)ccc2o1`, the AC50 [2] was 3.16 µM [falling, full curve].

For `COc1cccc(Oc2c(C)oc3cc(OC(=O)N(C)C)ccc3c2=O)c1`, the AC50 [2] was 0.00398 µM [falling, full curve, poor fit].

With `O=C(OCC1O[C@@H](OC(=O)c2cc(O)c(O)c(O)c2)[C@@H](OC(=O)c2cc(O)c(O)c(O)c2)[C@@H](OC(=O)c2cc(O)c(O)c(O)c2)[C@@H]1OC(=O)c1cc(O)c(O)c(O)c1)c1cc(O)c(O)c(O)c1` (some centres undefined) the AC50 [2] was 12.6 µM [rising, partial curve, poor fit].

In the case of `CCCCc1nn2c(=O)cc(COC(=O)Cc3ccccc3)nc2s1`, the AC50 [2] is reported as 0.00501 µM [falling, full curve, poor fit].

With `O=C(Nc1ccc(Cl)c(Cl)c1)O/N=C/c1ccncc1` the AC50 [2] was 31.6 µM [rising, partial curve].

For `Clc1ccc2c(c1)C(c1ccccc1Cl)=NCc1nnc(N3CCN(CCOc4ccccc4)CC3)n1-2`, the AC50 [1] was 7.94 µM [rising, partial curve] and the AC50 [2] was 15.8 µM [rising, partial curve].

For `c1ccc(OCCSc2nc3ccccc3[nH]2)cc1`, the AC50 [2] was 35.5 µM [rising, single point].

With `CCc1cccc(NC(=O)Cn2c(=O)oc3cc(S(=O)(=O)N4CCOCC4)ccc32)c1` the AC50 [1] was 14.1 µM [rising, single point] and the AC50 [2] was 12.6 µM [rising, partial curve].

In the case of `CCOC(=O)C(O)(c1ccc(N(CC)C(=O)COc2ccccc2)cc1)C(F)(F)F` (centres undefined), the AC50 [1] is reported as 5.62 µM [falling, single point].

For `O=c1cc(-c2ccc(O)c(O)c2)oc2cc(O)cc(O)c12`, the AC50 [1] was 12.6 µM [falling, single point] and the AC50 [2] was 3.16 µM [falling, partial curve].

In the case of `C[C@]12CCC3C(CC[C@H]4C[C@H](O)CC[C@]34C)C1CC[C@@H]2C(=O)CO` (some centres undefined), the AC50 [1] is reported as 5.62 µM [falling, partial curve, poor fit].

In the case of `CCC(=O)O[C@H]1CC[C@H]2[C@@H]3CCC4=CC(=O)CC[C@]4(C)[C@H]3CC[C@]12C`, the AC50 [1] is reported as 0.00501 µM [falling, full curve] and the AC50 [2] is reported as 0.00794 µM [falling, full curve, poor fit].

With `Clc1ccc(COC(Cn2ccnc2)c2ccc(Cl)cc2Cl)c(Cl)c1` (centres undefined) the AC50 [1] was 5.62 µM [falling, single point] and 3.55 µM [falling, partial curve] and the AC50 [2] was 8.91 nM [rising, full curve, poor fit] and 4.47 µM [falling, partial curve].

For `Cc1cc(/C=C2/C(=O)NC(=O)N(C)C2=O)c(C)n1-c1ccccc1`, the AC50 [1] was 0.708 µM [falling, full curve] and the AC50 [2] was 1 µM [falling, full curve, poor fit].

With `CC[C@@H]1CN2CCc3cc(OC)c(OC)cc3[C@H]2C[C@@H]1C[C@H]1NCCc2cc(OC)c(OC)cc21` the AC50 [1] was 0.2 µM [falling, full curve] and the AC50 [2] was 0.178 µM [falling, full curve].
